{
  "source": "the supplement of paper PMC8728848",
  "experiment_in_all_cases": "glycan array binding signal (z-score within array); higher = stronger binding",
  "conditions_in_all_cases": "glycan notation: IUPAC condensed, linker removed",
  "key": {"[1]": {"biological_target": "Neu5Ac(a2-6)GlcNAc(b1-4)GlcNAc(b1-4)GlcNAc", "outline": "(§1)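 Columns mapping to the same glycan were averaged after glycan names were converted to IUPAC-condensed notation. The data come from 3228 arrays in the Consortium for Functional Glycomics database, limited to those with an available protein sequence. Binding is reported as a within-array Z-score averaged across arrays of one protein sequence and across linkers.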"}, "Neu5Ac(a2-8)Neu5Ac": {"biological_target": "Neu5Ac(a2-8)Neu5Ac", "outline": "as §1"}, "[2]": {"biological_target": "Neu5Ac(a2-8)Neu5Ac(a2-3)Gal(b1-3)GalNAc(b1-4)[Neu5Ac(a2-3)]Gal(b1-4)Glc", "outline": "as §1"}, "[3]": {"biological_target": "Neu5Ac(a2-8)Neu5Ac(a2-3)Gal(b1-3)GalNAc(b1-4)[Neu5Ac(a2-8)Neu5Ac(a2-3)]Gal(b1-4)Glc", "outline": "as §1"}, "[4]": {"biological_target": "Neu5Ac(a2-8)Neu5Ac(a2-3)Gal(b1-4)Glc", "outline": "as §1"}, "[5]": {"biological_target": "Neu5Ac(a2-8)Neu5Ac(a2-3)Gal(b1-4)GlcNAc", "outline": "as §1"}, "[6]": {"biological_target": "Neu5Ac(a2-8)Neu5Ac(a2-3)[Gal(b1-3)GalNAc(b1-4)]Gal(b1-4)Glc", "outline": "as §1"}, "[7]": {"biological_target": "Neu5Ac(a2-8)Neu5Ac(a2-3)[GalNAc(b1-4)]Gal(b1-4)Glc", "outline": "as §1"}, "[8]": {"biological_target": "Neu5Ac(a2-8)Neu5Ac(a2-8)Neu5Ac", "outline": "as §1"}, "[9]": {"biological_target": "Neu5Ac(a2-8)Neu5Ac(a2-8)Neu5Ac(a2-3)Gal(b1-4)Glc", "outline": "as §1"}, "[10]": {"biological_target": "Neu5Ac(a2-8)Neu5Ac(a2-8)Neu5Ac(a2-3)[Gal(b1-3)GalNAc(b1-4)]Gal(b1-4)Glc", "outline": "as §1"}, "[11]": {"biological_target": "Neu5Ac(a2-8)Neu5Ac(a2-8)Neu5Ac(a2-3)[GalNAc(b1-4)]Gal(b1-4)Glc", "outline": "as §1"}, "[12]": {"biological_target": "Neu5Ac(a2-8)Neu5Ac(a2-8)Neu5Ac(a2-8)Neu5Ac(a2-3)[GalNAc(b1-4)]Gal(b1-4)Glc", "outline": "as §1"}, "[13]": {"biological_target": "Neu5Ac(a2-8)Neu5Gc(a2-3)Gal(b1-4)GlcNAc", "outline": "as §1"}, "[14]": {"biological_target": "Neu5Ac(b2-6)Gal(b1-4)GlcNAc", "outline": "as §1"}, "Neu5Ac(b2-6)GalNAc": {"biological_target": "Neu5Ac(b2-6)GalNAc", "outline": "as §1"}, "[15]": {"biological_target": "Neu5Ac9Ac(a2-3)Gal(b1-4)GlcNAc", "outline": "as §1"}, "[16]": {"biological_target": "Neu5Ac9Ac(a2-6)Gal(b1-4)GlcNAc", "outline": "as §1"}, "[17]": {"biological_target": "Neu5Gc(a2-3)Gal(b1-3)GlcNAc", "outline": "as §1"}, "[18]": {"biological_target": "Neu5Gc(a2-3)Gal(b1-3)[Fuc(a1-4)]GlcNAc", "outline": "as §1"}, "Neu5Gc(a2-3)Gal(b1-4)Glc": {"biological_target": "Neu5Gc(a2-3)Gal(b1-4)Glc", "outline": "as §1"}, "[19]": {"biological_target": "Neu5Gc(a2-3)Gal(b1-4)GlcNAc", "outline": "as §1"}, "[20]": {"biological_target": "Neu5Gc(a2-3)Gal(b1-4)GlcNAc(b1-3)Gal(b1-4)GlcNAc(b1-2)Man(a1-3)[Neu5Gc(a2-3)Gal(b1-4)GlcNAc(b1-3)Gal(b1-4)GlcNAc(b1-2)Man(a1-6)]Man(b1-4)GlcNAc(b1-4)GlcNAc", "outline": "as §1"}, "[21]": {"biological_target": "Neu5Gc(a2-3)Gal(b1-4)[Fuc(a1-3)]GlcNAc", "outline": "as §1"}, "[22]": {"biological_target": "Neu5Gc(a2-6)Gal(b1-4)GlcNAc", "outline": "as §1"}, "Neu5Gc(a2-6)GalNAc": {"biological_target": "Neu5Gc(a2-6)GalNAc", "outline": "as §1"}, "[23]": {"biological_target": "Neu5Gc(a2-8)Neu5Ac(a2-3)Gal(b1-4)GlcNAc", "outline": "as §1"}, "[24]": {"biological_target": "Neu5Gc(a2-8)Neu5Gc(a2-3)Gal(b1-4)GlcNAc", "outline": "as §1"}, "[25]": {"biological_target": "Neu5Gc(a2-8)Neu5Gc(a2-3)Gal(b1-4)GlcNAc(b1-3)Gal(b1-4)GlcNAc", "outline": "as §1"}, "[26]": {"biological_target": "Neu5Gc(a2-8)Neu5Gc(a2-6)Gal(b1-4)GlcNAc", "outline": "as §1"}, "[27]": {"biological_target": "Neu5Gc(b2-6)Gal(b1-4)GlcNAc", "outline": "as §1"}},
  "note": "Some of the results follow.",
  "data": [
    {"binder": "Protein L(B1-B4) (Finegoldia magna), Q51912 (protein) KEETPETPETDSEEEVTIKANLIFANGSTQTAEFKGTFEKATSEAYAYADTLKKDNGEYTVDVADKGYTLNIKFAGKEKTPEEPKEEVTIKANLIYADGKTQTAEFKGTFEEATAEAYRYADALKKDNGEYTVDVADKGYTLNIKFAGKEKTPEEPKEEVTIKANLIYADGKTQTAEFKGTFEEATAEAYRYADLLAKENGKYTVDVADKGYTLNIKFAGKEKTPEEPKEEVTIKANLIYADGKTQTAEFKGTFAEATAEAYRYADLLAKENGKYTADLEDGGYTINIRFAG", "values": [
      {"measurement": "glycan array binding signal (z-score)", "setting": "[1]", "result": -0.463},
      {"measurement": "glycan array binding signal (z-score)", "setting": "Neu5Ac(a2-8)Neu5Ac", "result": -0.503},
      {"measurement": "glycan array binding signal (z-score)", "setting": "[2]", "result": -0.525},
      {"measurement": "glycan array binding signal (z-score)", "setting": "[3]", "result": -0.215},
      {"measurement": "glycan array binding signal (z-score)", "setting": "[4]", "result": -1.15},
      {"measurement": "glycan array binding signal (z-score)", "setting": "[5]", "result": -0.602},
      {"measurement": "glycan array binding signal (z-score)", "setting": "[6]", "result": 0.211},
      {"measurement": "glycan array binding signal (z-score)", "setting": "[7]", "result": 0.374},
      {"measurement": "glycan array binding signal (z-score)", "setting": "[8]", "result": -0.413},
      {"measurement": "glycan array binding signal (z-score)", "setting": "[9]", "result": 0.487},
      {"measurement": "glycan array binding signal (z-score)", "setting": "[10]", "result": -0.773},
      {"measurement": "glycan array binding signal (z-score)", "setting": "[11]", "result": 0.34},
      {"measurement": "glycan array binding signal (z-score)", "setting": "[12]", "result": 0.128},
      {"measurement": "glycan array binding signal (z-score)", "setting": "[13]", "result": -0.811},
      {"measurement": "glycan array binding signal (z-score)", "setting": "[14]", "result": -0.79},
      {"measurement": "glycan array binding signal (z-score)", "setting": "Neu5Ac(b2-6)GalNAc", "result": -0.395},
      {"measurement": "glycan array binding signal (z-score)", "setting": "[15]", "result": 0.223},
      {"measurement": "glycan array binding signal (z-score)", "setting": "[16]", "result": -0.845},
      {"measurement": "glycan array binding signal (z-score)", "setting": "[17]", "result": -0.672},
      {"measurement": "glycan array binding signal (z-score)", "setting": "[18]", "result": 0.266},
      {"measurement": "glycan array binding signal (z-score)", "setting": "Neu5Gc(a2-3)Gal(b1-4)Glc", "result": -0.735},
      {"measurement": "glycan array binding signal (z-score)", "setting": "[19]", "result": -0.106},
      {"measurement": "glycan array binding signal (z-score)", "setting": "[20]", "result": 0.429},
      {"measurement": "glycan array binding signal (z-score)", "setting": "[21]", "result": -0.618},
      {"measurement": "glycan array binding signal (z-score)", "setting": "[22]", "result": -0.063},
      {"measurement": "glycan array binding signal (z-score)", "setting": "Neu5Gc(a2-6)GalNAc", "result": -0.808},
      {"measurement": "glycan array binding signal (z-score)", "setting": "[23]", "result": -0.512},
      {"measurement": "glycan array binding signal (z-score)", "setting": "[24]", "result": -1.03},
      {"measurement": "glycan array binding signal (z-score)", "setting": "[25]", "result": -0.983},
      {"measurement": "glycan array binding signal (z-score)", "setting": "[26]", "result": -1.09},
      {"measurement": "glycan array binding signal (z-score)", "setting": "[27]", "result": -0.305}
    ]}
  ]
}
